No constants are given. Whether binding was seen depends on the method and setting. In cells and extracts the contact can be indirect.

Chains of the proteins cited; added tags and fusions are not shown.
UniProt P97302: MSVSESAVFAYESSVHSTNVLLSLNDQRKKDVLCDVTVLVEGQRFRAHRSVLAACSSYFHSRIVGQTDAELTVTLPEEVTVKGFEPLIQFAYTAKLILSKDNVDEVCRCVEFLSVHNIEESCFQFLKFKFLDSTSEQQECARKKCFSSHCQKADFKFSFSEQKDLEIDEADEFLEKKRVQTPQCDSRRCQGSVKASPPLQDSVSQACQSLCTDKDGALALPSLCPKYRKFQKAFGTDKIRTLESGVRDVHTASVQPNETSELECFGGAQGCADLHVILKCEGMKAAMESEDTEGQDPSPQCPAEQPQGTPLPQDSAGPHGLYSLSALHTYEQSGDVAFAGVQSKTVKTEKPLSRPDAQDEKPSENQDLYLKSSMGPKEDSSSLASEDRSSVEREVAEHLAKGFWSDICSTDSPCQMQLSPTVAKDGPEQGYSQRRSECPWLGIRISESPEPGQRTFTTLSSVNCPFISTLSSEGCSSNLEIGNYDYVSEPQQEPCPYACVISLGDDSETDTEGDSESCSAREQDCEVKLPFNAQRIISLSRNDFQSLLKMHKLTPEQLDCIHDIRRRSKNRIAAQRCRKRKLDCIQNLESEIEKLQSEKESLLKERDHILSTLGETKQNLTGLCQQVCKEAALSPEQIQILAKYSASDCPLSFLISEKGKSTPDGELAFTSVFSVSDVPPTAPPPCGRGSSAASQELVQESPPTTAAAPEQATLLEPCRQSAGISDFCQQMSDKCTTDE

The target of this test is BTB and CNC homology factor 1 (BACH1) (mouse (endogenous in murine thymocytes)) (UniProt P97302). Nature of the test: co-IP.

B1: Special AT-rich sequence-binding protein 1 (SATB1) (protein, UniProt Q60611 1-764)
chain: MDHLNEATQGKEHSEMSNNVSDPKGPPAKIARLEQNGSPLGRGRLGSTGGKMQGVPLKHSGHLMKTNLRKGTMLPVFCVVEHYENAIEYDCKEEHAEFVLVRKDMLFNQLIEMALLSLGYSHSSAAQAKGLIQVGKWNPVPLSYVTDAPDATVADMLQDVYHVVTLKIQLHSCPKLEDLPPEQWSHTTVRNALKDLLKDMNQSSLAKECPLSQSMISSIVNSTYYANVSAAKCQEFGRWYKHFKKTKDMMVEMDSLSELSQQGANHVNFGQQPVPGNTAEQPPSPAQLSHGSQPSVRTPLPNLHPGLVSTPISPQLVNQQLVMAQLLNQQYAVNRLLAQQSLNQQYLNHPPPVSRSMNKPLEQQVSTNTEVSSEIYQWVRDELKRAGISQAVFARVAFNRTQGLLSEILRKEEDPKTASQSLLVNLRAMQNFLQLPEAERDRIYQDERERSLNAASAMGPAPLLSTPPSRPPQVKTATLATERNGKPENNTMNINASIYDEIQQEMKRAKVSQALFAKVAATKSQGWLCELLRWKEDPSPENRTLWENLSMIRRFLSLPQPERDAIYEQESNAVHHHGDRPPHIIHVPAEQIQQQQQQQQQQQQQQQPPPPPPQPQPQPQAGPRLPPRQPTVASSAESDEENRQKTRPRTKISVEALGILQSFIQDVGLYPDEEAIQTLSAQLDLPKYTIIKFFQNQRYYLKHHGKLKDNSGLEVDVAEYKDEELLKDLEESVQDKNANTLFSVKLEEELSVEGSTDVNADLKD
For the molecule B1, the binding entry was “no binding”.

The values above are taken from publication doi:10.1101/2025.11.25.690242.
